Among the data in EP4778940A1 (Artivila (ShenZhen) Innovation Center, Ltd., dated 2026) are binding values, retold here.

Positions count from the first letter of the chain named. These are yes or no findings as the source states them, for the method shown. Binding can be weak; no strength is given.

B1: Ab01-122M1 (antibody, V domains shown)
VH: DVQLQESGGGLVQPGGSLKLSCTASRRIFTFTAAGWYRQAPGQQREFVAVIANGGHTNYADSVKGRFTISRDNAKNTVYLQMNSLKPEDTAVYYCNTPPAFGSWGPGTQVTVSS
B2: Ab01-126M1 (antibody, V domains shown)
VH: B1 VH with K19R, R26T, T32S, Q43K, A52T, N53G, N76D
B3: positive control antibody 2C4 (antibody, V domains shown)
VH: EVHLQQSGPELEKPGVSVKISCKASGFSFTDYNMNWVKQSSGKSLEWIGNIDPYYGRINYNQKFKGKATLSVDKSSSTAYMHLKSLTSEDSAVYYCATGAYTSGYSWFAYWGQGTLVTVSS
VL: ENVLTQSPGIMAASLGEKVTMTCSASSSVSSSYLHWYQQRSGASPKPLIHRTSNLASGVPARFSGSGSGTSYSLTISSVEAEDDATYYCQQWSGYPFTFGSGTKLEIK
notes: also called positive control 2C4; positive antibody
B4: Ab01-63M2 (antibody, V domains shown)
VH: DVQLQESGGGLVQPGGSLRLSCAASGFTLDYYVIGWFRQAPGKEREGVSCISSSDGSTYSADSVKGRFTISRDNAENTVYLQMNSLKPEDTAVYYCAARRSPGIEGWCALPFFFGSWGQGTQVTVSS
notes: also called candidate parental antibody Ab01-63M2
B5: Ab01-91M2 (antibody, V domains shown)
VH: DVQLQESGGGLVQPGGSLRLSCAASGFTFSNYLMGWYRQAPGKERELVAAINSAGYSTVYAESVKGRFTTSRDNAKSMVYLQMNSLKAEDTAVYYCNARYDRWHDYWGQGTQVTVSS
B6: Ab01-121M1 (antibody, V domains shown)
VH: DVQLQESGGGLVQPGGSLRLSCAASGSRFSFNVMGWHRQAPGKQRELVALISSGGTANYADSVKGRFTISRDNAGNTMYLQMNTLKPEDTAVYYCTATTPVGQYWGQGTQVTVSS
B7: Ab01-7M2 (antibody, V domains shown)
VH: DVQLQESGGGLVQPGGSLRLSCAASGFTFSSTPMYWYRQAPGKERDFVAIMAPGGYEDIADSVRGRFSISRDNGNNTMYLQMNSLKPEDTALYYCRALNSWGQGTQVTVSS
B8: Ab01-110M1 (antibody, V domains shown)
VH: DVQLQESGGGLVQTGGSLRLSCAAPGFTLDDYAIGWFRQAPGKERERISCITSSTNRTYYANSVKGRFTISRDSAKNTVYLQMNSLKPEDTAVYYCAAEPILCVLWSAGGAMDYWGKGTQVTVSS
B9: Ab01-84M2 (antibody, V domains shown)
VH: DVQLQESGGGLVQAGGSLRLSCAASGFPFDDYSIGWFRQAPGKAREGISCISSTHGTTYYTDSVKDRFTITRDNAKNTVYLQMNNLKPEDAAVYYCAAGLDGLACHRRDSGSRYRTQLYDYWGQGTQVTVSS

For this test, the target named is cynomolgus monkey HHLA2 on HEK293 cells (HEK293-cyHHLA2) (cynomolgus monkey). Put plainly: flow cytometry on HEK293-cyHHLA2 cells.
With B1, the binding result is listed as “binds”. In the case of B2 it was “binds”; in that of B3, “binds”; in that of B4, “binds”. In the case of B5 it was “binds”. As for B6, the binding entry is given as “binds”. In the case of B7 it was “binds”; in that of B8, “binds”; in that of B9, “binds”.
